PubChem BioAssay AID1159584 – Peter MacCallum Cancer Centre – 2016

Purpose: 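Genes whose loss is lethal only together with E-cadherin loss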 (primary screen)
Cells: human MCF10A breast epithelial cells, parental and CDH1-null
Reagent: siRNA against human genes
Measured: 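ATP luminescence (CellTiter-Glo) viability per line relative to mean mock wells over all plates, and the ratio of CDH1-null to parental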
Direction: CDH1-null / parental viability ratio: higher = CDH1-null cells survive relatively better than parental; CDH1-null viability vs mock: higher = more viable CDH1-null cells
In all, the deposit lists about 18,000 reagents; this is a part drawn at random. Further read-outs or replicates are left out here. Reagent sequences are not shown. Not stated in the record: the amount of reagent, the time to read-out.

For LRIT3 [SID134326838], how do the results read?
CDH1-null / parental viability ratio: 1.43; CDH1-null viability vs mock (fraction of mock): 1.09

What is on record for CTSG [SID135621082]?
CDH1-null / parental viability ratio: 1.04; CDH1-null viability vs mock (fraction of mock): 0.8

With HS3ST3B1 [SID152152345], how do the results read?
CDH1-null / parental viability ratio: 0.74; CDH1-null viability vs mock (fraction of mock): 0.78

Which result is listed for TTC13 [SID134322018]?
CDH1-null / parental viability ratio: 1.61; CDH1-null viability vs mock (fraction of mock): 0.45

With OR10W1 [SID135625205], what does the deposit list?
CDH1-null / parental viability ratio: 0.6; CDH1-null viability vs mock (fraction of mock): 0.34

What did the screen give for ZNF219 [SID152153016]?
CDH1-null / parental viability ratio: 0.97; CDH1-null viability vs mock (fraction of mock): 0.91

With TMPRSS7 [SID152149958], how do the results read?
CDH1-null / parental viability ratio: 0.98; CDH1-null viability vs mock (fraction of mock): 0.8

What did the screen give for CACNA1S [SID152149150]?
CDH1-null / parental viability ratio: 1.45; CDH1-null viability vs mock (fraction of mock): 1.13

For LOC402715 [SID135625440], what does the deposit list?
CDH1-null / parental viability ratio: 1.01; CDH1-null viability vs mock (fraction of mock): 0.82

For TRAPPC9 [SID152151072], what does the deposit list?
CDH1-null / parental viability ratio: 1.1; CDH1-null viability vs mock (fraction of mock): 0.88

Which result is listed for ATAD1 [SID134322063]?
CDH1-null / parental viability ratio: 0.82; CDH1-null viability vs mock (fraction of mock): 0.46

What did the screen give for ZNF648 [SID152150983]?
CDH1-null / parental viability ratio: 0.92; CDH1-null viability vs mock (fraction of mock): 0.81

Which result is listed for PIGU [SID152151501]?
CDH1-null / parental viability ratio: 0.9; CDH1-null viability vs mock (fraction of mock): 0.77

For CARF [SID152153511], what does the deposit list?
CDH1-null / parental viability ratio: 0.91; CDH1-null viability vs mock (fraction of mock): 0.96
